Results deposited as PubChem BioAssay AID504793 (Drosophila RNAi Screening Center, 2011)
The screen tested about 23,000 reagents; below is a random part of those that have a named target and a result. In the full data, 62 (0.27%) were called active. 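Calls come from follow-up tests whose scores are not deposited, so confirmed genes may have low counts here; counts are not normalised per plate.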 The raw values are shown without normalisation. A plus sign joins genes that one reagent is predicted to hit. No sequences are given here.

- Screen: 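Genes required for cells to halt at G2/M after double-strand DNA breaks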 (primary screen)
- System: Drosophila S2R+ cells
- Reagent: long dsRNA against Drosophila genes, about 0.25 µg dsRNA per well
- Timing: 4 days of dsRNA, then 4 hours of drug before read-out
- Treatment: doxorubicin 0.5 µM for 4 hours to cause double-strand breaks, in cells also given a low, harmless dose of dsRNA against nbs to sensitise the assay
- Measured: 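Per-well count of mitotic cells stained for phospho-histone H3 after doxorubicin exposure, used as mitotic index; counts are raw and not normalised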
- Reading the numbers: mitotic cells: higher = more cells in mitosis, weaker G2 arrest
- Rule for the call: 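a call needs confirmation in secondary tests, with other dsRNAs and a check of mitotic timing without damage, not just a high primary count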
- Calls: active = confirmed in follow-up tests; inactive = not confirmed

CG1299 [DRSC08300] | mitotic cells, replicate 1 = 8; call = inactive
Swt1 [DRSC20028] | mitotic cells, replicate 1 = 5; call = inactive
srl [DRSC12340] | mitotic cells, replicate 1 = 2; call = inactive
srl [DRSC29561] | mitotic cells, replicate 1 = 3; call = inactive
CG5555 [DRSC15834] | mitotic cells, replicate 1 = 13; call = inactive
CG14400 [DRSC02384] | mitotic cells, replicate 1 = 7; call = inactive
l(2)SH0834 [DRSC02854] | mitotic cells, replicate 1 = 3; call = inactive
CG15202 [DRSC19649] | mitotic cells, replicate 1 = 15; call = inactive
Irbp18 [DRSC10612] | mitotic cells, replicate 1 = 1; call = inactive
RpLP0 [DRSC11878] | mitotic cells, replicate 1 = 7; call = inactive
RpLP0 [DRSC22110] | mitotic cells, replicate 1 = 18; call = inactive
Inx7 + cm [DRSC18753] | mitotic cells, replicate 1 = 7; call = inactive
nullo [DRSC18807] | mitotic cells, replicate 1 = 10; call = inactive
nullo [DRSC29660] | mitotic cells, replicate 1 = 8; call = inactive
ath [DRSC02788] | mitotic cells, replicate 1 = 7; call = inactive
AGBE [DRSC06861] | mitotic cells, replicate 1 = 3; call = inactive
AGBE [DRSC27652] | mitotic cells, replicate 1 = 10; call = inactive
Gr47b [DRSC05275] | mitotic cells, replicate 1 = 8; call = inactive
mAChR-C [DRSC17890] | mitotic cells, replicate 1 = 19; call = inactive
mAChR-C [DRSC27441] | mitotic cells, replicate 1 = 5; call = inactive
p130CAS + Dic61B [DRSC08588] | mitotic cells, replicate 1 = 3; call = inactive
Fur1 [DRSC13707] | mitotic cells, replicate 1 = 12; call = inactive
Fur1 [DRSC16676] | mitotic cells, replicate 1 = 9; call = inactive
CG13681 (retired record) [DRSC08906] | mitotic cells, replicate 1 = 9; call = inactive
CG13681 (retired record) [DRSC08907] | mitotic cells, replicate 1 = 8; call = inactive
CG13681 (retired record) [DRSC10038] | mitotic cells, replicate 1 = 6; call = inactive
CG13681 (retired record) [DRSC10039] | mitotic cells, replicate 1 = 6; call = inactive
CG13681 (retired record) [DRSC10927] | mitotic cells, replicate 1 = 3; call = inactive
CG13681 (retired record) [DRSC10929] | mitotic cells, replicate 1 = 7; call = inactive
CG13681 (retired record) [DRSC27924] | mitotic cells, replicate 1 = 9; call = inactive
CG13590 [DRSC04226] | mitotic cells, replicate 1 = 9; call = inactive
CG13590 [DRSC29790] | mitotic cells, replicate 1 = 9; call = inactive
PDZ-GEF [DRSC03231] | mitotic cells, replicate 1 = 5; call = inactive
CG33290 [DRSC11493] | mitotic cells, replicate 1 = 5; call = inactive
CG33290 [DRSC27148] | mitotic cells, replicate 1 = 6; call = inactive
Schip1 [DRSC02851] | mitotic cells, replicate 1 = 11; call = inactive
Schip1 [DRSC28775] | mitotic cells, replicate 1 = 3; call = inactive
MFS1 [DRSC04115] | mitotic cells, replicate 1 = 6; call = inactive
MFS1 [DRSC27926] | mitotic cells, replicate 1 = 6; call = inactive
Amyrel [DRSC05920] | mitotic cells, replicate 1 = 9; call = inactive
CG15365 [DRSC23021] | mitotic cells, replicate 1 = 12; call = inactive
Tsp42Ed [DRSC05940] | mitotic cells, replicate 1 = 6; call = inactive
sm [DRSC05795] | mitotic cells, replicate 1 = 4; call = inactive
sm [DRSC07686] | mitotic cells, replicate 1 = 3; call = inactive

Laid out differently: 6 of the entries above.
CG33290 [DRSC11493]
- mitotic cells, replicate 1: 5
- call: inactive

CG33290 [DRSC27148]
- mitotic cells, replicate 1: 6
- call: inactive

Schip1 [DRSC02851]
- mitotic cells, replicate 1: 11
- call: inactive

Schip1 [DRSC28775]
- mitotic cells, replicate 1: 3
- call: inactive

MFS1 [DRSC04115]
- mitotic cells, replicate 1: 6
- call: inactive

MFS1 [DRSC27926]
- mitotic cells, replicate 1: 6
- call: inactive
